About 610 (0.16%) of roughly 390,000 compounds were called active. The inconclusive results got no clear call from the source; some entries with a clear call stand among them for comparison. Calls come from the whole dose curve; as a rule, active = well fitted inhibition curve with a large enough effect; inconclusive = small, poorly fitted or top-dose-only effect, or effect the other way, or another doubt; inactive = no such curve, though single readings can be large or run the other way. Potencies beside an inconclusive call are fits to weak or partial responses and may not hold up.
Test: Nrf2 qHTS screen for inhibitors: counterscreen for cytotoxicity
Conditions: A549 ARE-Fluc cells, CellTiter-Fluor viability, 18-24 h; activity change, negative = cytotoxicity: at 46 µM (top of the series)
Summary of the method: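 A549 ARE-Fluc cells in 5% FBS OPTI-MEM, 5000 cells/well, rested 2 h then exposed to compounds in concentration-response for 18-24 h at 37 °C. Viability by CellTiter-Fluor fluorescence (Ex 405/Em 525) after 30 min; luciferase luminescence (BugLite, 15 min, RT) read afterwards.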
% is set by controls: 0 for no effect and ±100 for the full control effect; potency is the fitted concentration of half-maximal effect.

SMILES	Potency	activity change, negative = cytotoxicity
CCOC(=O)/C=c1\s/c(=C\c2ccc(C(F)(F)F)cc2)c(=O)n1CC(=O)NCc1ccco1	inconclusive: 4.61 µM [falling, partial curve, poor fit]	–
Cn1c(=O)n(C)c2cc(NS(=O)(=O)c3ccc4c(c3)CCCC4)ccc21	inconclusive: 14.6 µM [activator, single point]	–
O=C(CN1CCCCCC1)Nc1ccc([N+](=O)[O-])cc1Cl	–	inactive: -1.01%
O=C(Nc1c2c(nn1-c1ccccc1)CS(=O)(=O)C2)c1ccccc1Br	inconclusive: 32.6 µM [falling, partial curve, poor fit]	–
CC1=[N+](C)c2c(ccc3cccnc23)C1(C)C	inconclusive: 7.31 µM [falling, partial curve, poor fit]	–
CN(C)CCNC(=O)Cc1ccc(NC(=O)N2CCCCc3ccccc32)cc1	–	inactive: -0.791%
CCCCNC(=O)N1CCN(C(c2ccccc2)c2ccccc2)CC1	–	inactive: -2.42%
Cc1ccc(S(=O)(=O)n2ccc3c(OCCOCCNCc4ccc(F)cc4)cccc32)cc1	inconclusive: 29.1 µM [falling, single point]	–
Cc1ccc(C)c(N2CCN(CCCNC(=O)Cn3c(-c4cccs4)cc4ccccc43)CC2)c1	inconclusive: 23.1 µM [falling, single point]	–
S=C(NCCC(c1ccccc1)c1ccccc1)Nc1ccc(Cl)cc1	inconclusive: 29.1 µM [falling, single point]	–
Cc1ccc(Cl)cc1N1CCN(C(=O)C2CCC(=O)N(C3CCCCCC3)C2)CC1 (stereo not drawn)	inconclusive: 18.4 µM [falling, single point]	–
O=C1c2ccccc2C(=O)c2[nH]c(=O)[nH]c21	active: 14.6 µM	–
CC#CC#Cc1cccc(=O)o1	inconclusive: 23.1 µM [falling, single point]	–
O=C(CSc1nc(-c2ccco2)nc2cc(=O)[nH]n12)Nc1ccccc1Cl	–	inactive: 17.6%
CC(NCCN(C)C)C1CCC2C3CCc4cc(O)ccc4C3CCC12C (stereo not drawn)	inconclusive: 29.1 µM [falling, partial curve, poor fit]	–
COc1ccc(NC(=O)c2cc3ccccc3cc2O)cc1	inconclusive: 29.1 µM [falling, single point]	–
Cc1ccc(C(c2sc3nc(C)nn3c2O)N2CCN(c3ccccc3F)CC2)cc1 (stereo not drawn)	inconclusive: 6.51 µM [activator, partial curve, poor fit]	–
COc1cc(NC(=O)c2cccc(Cl)c2)c(OC)cc1NC(=O)CN1CCCCC1	inconclusive: 20.6 µM [falling, single point]	–
CN1CCN(/C=N/c2c(C#N)cnn2Cc2ccccc2)CC1	–	inactive: -3.22%
C#Cc1ccc([C@H]2C=C(C(=O)NCc3nc4ccccc4[nH]3)O[C@@H](OCC)[C@@H]2CCCO)cc1	inconclusive: 29.1 µM [activator, partial curve, poor fit]	–
CCC1CCCCN1C(=O)Cn1c(=O)n(-c2ccccc2C(F)(F)F)c(=O)c2c(C)c(C(=O)N(C)C)sc21 (stereo not drawn)	–	inactive: -0.783%
C=CCNc1nc(N2CCOCC2)c(C#N)c2c1CN(C)CC2	inconclusive: 9.2 µM [activator, partial curve, poor fit]	–
Cc1ccc(-c2nnc(N3CCN(C(=O)c4ccco4)CC3)c3ccccc23)cc1	–	inactive: -10.3%

One compound at a time, from the list above. Values in the order: Potency	activity change, negative = cytotoxicity
CC1=[N+](C)c2c(ccc3cccnc23)C1(C)C is listed as inconclusive: 7.31 µM [falling, partial curve, poor fit]	–
O=C(Nc1c2c(nn1-c1ccccc1)CS(=O)(=O)C2)c1ccccc1Br is listed as inconclusive: 32.6 µM [falling, partial curve, poor fit]	–
Cc1ccc(Cl)cc1N1CCN(C(=O)C2CCC(=O)N(C3CCCCCC3)C2)CC1 (stereo not drawn) is listed as inconclusive: 18.4 µM [falling, single point]	–
COc1ccc(NC(=O)c2cc3ccccc3cc2O)cc1 is listed as inconclusive: 29.1 µM [falling, single point]	–

Carrying on:

SMILES	Potency	activity change, negative = cytotoxicity
CC(C)C(=O)NCCn1ccc2ccccc21	inconclusive: 18.4 µM [activator, partial curve, poor fit]	–
Cc1cccc(OCCN2C(=O)c3ccccc3C2=O)c1	inconclusive: 32.6 µM [activator, partial curve, poor fit]	–
O=C(NCC(c1ccco1)N1CCCCC1)c1ccc(NS(=O)(=O)c2ccc(F)cc2)cc1 (stereo not drawn)	–	inactive: -8.87%
COCC1CCCN(Cc2cn[nH]c2-c2cc3ccccc3o2)C1 (stereo not drawn)	inconclusive: 4.61 µM [falling, single point]	–
CCOc1ccc(CCNC(=O)c2ccc(Cn3c(=O)c4cccn4c4cccnc43)cc2)cc1	inconclusive: 18.4 µM [falling, single point]	–
O=C(CSCc1nc2cccnc2n1C1CCCCC1)NCc1cccc(Br)c1	inconclusive: 23.1 µM [falling, single point]	–
NC(=O)c1sc2nc(N3CCOCC3)c3c(c2c1N)CCCC3	–	inactive: 0.0909%
O=C(/C=C/c1ccccc1)NC(=S)Nc1ccc(CN2CCOCC2)cc1	–	inactive: 3.24%
N/C(=N\c1nc2c(c(=O)[nH]1)CCC2)Nc1cccc(Cl)c1	–	inactive: -3.43%
Oc1c(C(c2ccccc2)N2CCOCC2)ccc2ccccc12 (stereo not drawn)	–	inactive: -3.29%
CCCCN1C(=O)/C(=C/C=C2\Oc3ccccc3N2CC)SC1=S	inconclusive: 6.51 µM [falling, partial curve]	–
CCn1c(Cl)c(C=O)s/c1=N\S(=O)(=O)c1ccccc1	inconclusive: 18.4 µM [falling, single point]	–
O=c1oc2c3c4c(cc2c2c1CCC2)OCCN4CCC3	inconclusive: 23.1 µM [activator, partial curve]	–
COCCCN1C(=O)C(=O)/C(=C(/O)c2ccc(OC)cc2)C1c1ccc(O)c(OC)c1 (stereo not drawn)	–	inactive: -4.07%
Cc1ccc(S(=O)(=O)N(CC(=O)Nc2ccccc2-c2ccccc2)c2ccc(C)cc2C)cc1	inconclusive: 18.4 µM [activator, partial curve, poor fit]	–
CCOc1ccccc1C1NC(=O)NC(C)=C1C(=O)OC1CCCCC1 (stereo not drawn)	–	inactive: -26.1%
COCCCn1c(C(=O)NCCC2=CCCCC2)cc2c(=O)n3cccc(C)c3nc21	inconclusive: 23.1 µM [activator, partial curve, poor fit]	–
c1ccc(Cn2nnnc2C(c2ccncc2)N2CCOCC2)cc1 (stereo not drawn)	–	inactive: 0.591%
O=C1N[C@@H](c2ccccc2)COC(=O)[C@H](Cc2ccc(F)cc2)C/C=C\C[C@@H]1CC(=O)N(CCO)Cc1ccccc1	inconclusive: 20.6 µM [falling, partial curve, poor fit]	–
Cc1cc2c(cc1C)CSC(c1c(O)ccc3ccccc13)SC2	inconclusive: 18.4 µM [falling, single point]	–
O=C(NCCCN1CCOCC1)c1ccc(-n2nc(C(F)(F)F)cc2-c2cccs2)cc1	inconclusive: 25.9 µM [falling, partial curve, poor fit]	–
CCOC(=O)c1ccc(N2C(=O)c3[nH]nc(-c4ccccc4)c3C2c2cccs2)cc1 (stereo not drawn)	inconclusive: 29.1 µM [falling, single point]	–
Cc1ccc(C(=O)COc2nc(C)cc(C)c2C#N)cc1	–	inactive: -17.9%

SMILES	Potency	activity change, negative = cytotoxicity
N#CC(c1ccccc1)N(CCCCl)C(=O)c1ccc(Br)cc1 (stereo not drawn)	inconclusive: 29.1 µM [activator, partial curve, poor fit]	–
Oc1ccc2ccccc2c1N=Nc1nccs1	inconclusive: 25.9 µM [falling, partial curve, poor fit]	–
O=Cc1cc2cc3c(cc2nc1Cl)OCCO3	–	inactive: -0.337%
Cc1ccc(NC(=O)CCC(=O)NNS(=O)(=O)c2ccccc2)c(C)c1	–	inactive: -7.59%
Cc1ccc(NC(=O)N2CCC(=O)N2)cc1	–	inactive: 2.95%
O=C(CN1CCC(N2CCCCC2)CC1)N1CCCc2ccccc21	inconclusive: 6.51 µM [activator, partial curve, poor fit]	–
COc1ccc(Cn2c(C(=O)O)c(CNCc3cccs3)c3ccc(C)cc32)cc1	inconclusive: 13 µM [falling, partial curve]	–
O=[N+]([O-])c1cc(/C=N/O)ccc1SCc1ccccc1Cl	inconclusive: 20.6 µM [falling, single point]	–
CC(C)CCNC(=O)NC(=O)COC(=O)/C=C/c1cc(Br)ccc1F	–	inactive: 2.46%
O=C(CCCN1C(=O)/C(=C/c2cccs2)SC1=S)Nc1cccnc1	inconclusive: 32.6 µM [falling, partial curve, poor fit]	–
CC(=O)Nc1ccc2nc(C3CCCCC3)[nH]c2c1	inconclusive: 20.6 µM [activator, partial curve, poor fit]	–
O=C(Nc1ccc(NC(=O)c2ccc3c(c2)OCCO3)cc1)c1ccccc1	–	inactive: 1.95%
CCc1ccc(-c2nc(CSCC(=O)N3CCN(c4ccccn4)CC3)c(C)o2)cc1	inconclusive: 9.2 µM [falling, partial curve, poor fit]	–
CCN(C(=O)c1cc2c(Cl)nc3ccccc3c2s1)c1cccc(Cl)c1	inconclusive: 16.4 µM [activator, partial curve, poor fit]	–
Cc1ccc(Nc2c([N+](=O)[O-])c(=O)oc3ccccc23)cc1	inconclusive: 25.9 µM [falling, partial curve]	–
CC1(C)CC(=O)C(C2C3=C(CC(C)(C)CC3=O)Oc3c(Br)cc(Br)cc32)=C(O)C1 (stereo not drawn)	inconclusive: 29.1 µM [falling, single point]	–
CN1/C(=C\C=C2/SC(=S)NC2=O)C(C)(C)c2ccccc21	active: 14.6 µM	–
COC(=O)c1ccc(Cl)c(NC(=O)CN(c2ccccc2)S(=O)(=O)c2ccc(OC)cc2)c1	inconclusive: 7.31 µM [activator, partial curve, poor fit]	–
COc1ccc(CCN(C)CC(O)COC(c2ccc(F)cc2)c2ccc(F)cc2)cc1OC (stereo not drawn)	inconclusive: 18.4 µM [falling, single point]	–
CCc1ccc2[nH]c(=O)c(CN(Cc3cccnc3)Cc3nnnn3Cc3ccccc3)cc2c1	inconclusive: 29.1 µM [falling, single point]	–
Cc1cc(NC(=O)CSc2nc3c([nH]c4ccccc43)c(=O)n2-c2cccc(Cl)c2)no1	–	inactive: -0.914%
COc1cc2c(cc1OC)CN(C(=O)c1ccc([N+](=O)[O-])o1)CC2	inconclusive: 29.1 µM [falling, single point]	–
